Experimental data reported in paper doi:10.1101/2025.05.13.653810, “Spatial control of secretory vesicle targeting by the Ync13–Rga7–Rng10 complex during cytokinesis” (bioRxiv, 2025).
No constants are given. Whether binding was seen depends on the method and setting. Binding seen in cells or lysates may run through a third protein. A yes stands for co-enrichment or nearness to the bait. Other partners may have been found. Sequences can lack the tags named with a protein.

Target: T1, Ync13–3FLAG (S. pombe) (UniProt O13683)
T1 sequence: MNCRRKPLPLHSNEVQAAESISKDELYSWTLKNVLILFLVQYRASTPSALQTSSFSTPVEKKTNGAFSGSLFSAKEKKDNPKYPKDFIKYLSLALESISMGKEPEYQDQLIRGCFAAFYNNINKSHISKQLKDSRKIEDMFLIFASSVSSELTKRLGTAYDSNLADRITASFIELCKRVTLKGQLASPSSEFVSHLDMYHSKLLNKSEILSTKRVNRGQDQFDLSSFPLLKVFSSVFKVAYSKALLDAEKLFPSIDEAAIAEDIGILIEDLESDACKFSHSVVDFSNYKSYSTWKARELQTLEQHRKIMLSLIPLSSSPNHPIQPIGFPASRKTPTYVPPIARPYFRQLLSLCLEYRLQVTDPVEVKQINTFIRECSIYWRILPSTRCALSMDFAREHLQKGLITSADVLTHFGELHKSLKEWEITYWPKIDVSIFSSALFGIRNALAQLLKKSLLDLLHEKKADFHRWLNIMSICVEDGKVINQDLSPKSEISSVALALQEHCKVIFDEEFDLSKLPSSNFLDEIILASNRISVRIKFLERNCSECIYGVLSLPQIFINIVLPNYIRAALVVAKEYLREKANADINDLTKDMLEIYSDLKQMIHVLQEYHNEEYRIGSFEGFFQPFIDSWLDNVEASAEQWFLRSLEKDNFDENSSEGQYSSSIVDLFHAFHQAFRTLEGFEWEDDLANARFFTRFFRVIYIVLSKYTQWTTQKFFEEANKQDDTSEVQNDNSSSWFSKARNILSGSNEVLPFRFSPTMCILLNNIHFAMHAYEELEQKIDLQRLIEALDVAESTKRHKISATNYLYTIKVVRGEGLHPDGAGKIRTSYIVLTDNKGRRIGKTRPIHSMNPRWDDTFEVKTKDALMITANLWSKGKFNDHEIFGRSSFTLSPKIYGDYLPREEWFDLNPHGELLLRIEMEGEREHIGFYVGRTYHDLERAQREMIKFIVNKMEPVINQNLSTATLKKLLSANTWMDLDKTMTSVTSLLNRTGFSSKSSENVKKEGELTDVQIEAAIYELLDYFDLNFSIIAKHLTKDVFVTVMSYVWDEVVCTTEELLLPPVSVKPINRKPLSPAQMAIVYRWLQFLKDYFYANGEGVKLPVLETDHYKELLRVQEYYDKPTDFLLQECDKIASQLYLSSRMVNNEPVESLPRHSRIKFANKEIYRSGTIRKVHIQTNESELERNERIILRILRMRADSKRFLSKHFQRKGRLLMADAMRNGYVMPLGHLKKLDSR
Assay: affinity purification with mass spectrometry; Ync13-3xFLAG from S. pombe cell extracts on anti-FLAG M2 affinity gel, HK extraction buffer with 300 mM NaCl and 0.5% NP-40, eluted with 3xFLAG peptide; bands except Ync13 analysed by mass spectrometry

B1: Rga7–6xHis (natural protein, S. pombe, UniProt O94466 1-695, looked up)
chain: MLSAPSSSTTPASPPTSPPNTTSSDDFAVLKEPKVEAILNSELGLAILNDRIKDYLLTCKELAGFFKKRSILEEESGKNLQKLAKSYLETFQSKHHSPQSFSASVITSMEIHEQLANHSLTLQKTLSAFSDQVIEFHKNAERKRKSIKEYAKKQENAYLEAVMQMDKSKSRFKGAETEYNRALDNKNTGDSQKKVGFFKPKSNAQLTKLEDEARLKAENAESDMHSKIENAQNVQKQLLCIHRPNYIKQFFSLQREIESSLIANYLRYTKLCESNTLLNGLTIRPQKPTPTNCGLQHALDNINANTDFVQYVLHASIKHEDNKNPTDASKTKIIQPPSSYGTGSSAGKTNPPVNPTIKVTAAIPSPLQNTNPAPSTFPNPSVASPAFPNSSTSNPSTAPASASPLASTLKPSTANDTNGSSSSSSSNPRTSSPLASNAENKPPVAQQSPPVLLPTLPPIQTTTIQTSREVAPPPSSINSNRAASPFRPTSVSPQPSSPTKSLLFGARLDAIILREHSNIPNIVMQCTSQVENFGLNLQGIYRVPSSSARVNMLRSQFENNPLLQLHTPEDYENDVHAVADLLKIFFRELREPLIPDNHQRDFIDAGNVEDESRRRDAVHRAINDLPDANYSTIRHLTIHLAKIKENSDVNKMSTNNLAIIWGPTIIKQATIPEISSFSRTIEILIDYCFTIFDYD
notes: Rga7, F-BAR protein and Rho2 GAP of S. pombe; full length, cloned into pET21a between the T7 tag and the 6His tag; also called Rga7–6His; not shown: His6, C-terminal, kept
binding: binds

B2: Rng10 (protein, UniProt Q9P6L9 1-1038)
chain: MEENTAQKQSNATGLQRHVSGRWISNVPSYEGNEWSSEESESEDKESNLTSSENIGKNPERELNSDGTDRIIEEEEEEDDIENEASSFSEQSENENYDFSYPGTFVYRKAASSSHETLATKVVSADESARLWAEKRRFLLQKLGKDPNSKPIDYKSSMASSSTRSSQSSQVSAIQPQSQDDNRVSDIRQMENRRELNVKRRSVSSPAEDLAIRPLSFSRYKKAEEIPESLPPIKGRDSFSSVRELNESNVFARAPNKNRFSFASVAETGSGSNFSRATSSRSSKTRSVVYEPNHRHTSFFGDTLSNLSSSLNDKKSPNDDHAVLDSELMEQTLPDSAEAVEIANNVKEDIVSTANDDANELDNTSEKATLETSSKPVTEQAIEQSEVVQEVEEGDTNMTTNTILKPTDEIINKGYAYSITSSHSNHSNEKFEQIPSPDEKLSRTDIDTHVKQLQTTKSTDSLSIPFVESPQQNPEEELSDSLSNDFGIDAEKEKDENLSKPEHHPSITSVNSPFLYSPSKQPSGELDEENLKLRLQDSDVDDEVATIRSLKQNNATNSEVETVTNDPSFSQQPGTHSRILRNFDAISSIDSIPDSFSDSAVDLPVDSSKYTLVGKTQSNSNLLQDNAEKHISKSNLEKVDVKGDTSPNSVEQGIEPQAASVVGSPRSSLVSNNSLEEGALLKNSESLESIYGYLSEEPDPALTKLNTEDPFWTKGSSDDEHTIASVEQDVYPYKTSLPTIVEATTSHTESSNSKAPAIEETTTTKVEVVAAHDAVSISSNSSTHKSHSEPLNRDELEVAALSRGSLPEPPKPNKQIVVQEEDQRDTLSLKTSTTGLSSHSKSAENNSTQQSTTSPSINSGASADAVSSGISKKADNSETNLNYFATLDAFVKSPLMSFDGLGELGSTDQRYNFFNQKIQEYSAYDSGLDNWIQFCLEKDGEAPKEAPPPPRSEPVSTTTKLAKRITQPSLSPARSTVTITHNIATEAKKKSKSAANDILHLFKKKAKSEQSNAKSSSSSIKESKKMKTLFGKKLGFKS
binding: binds
